Paper PMC3114845, “Bordetella pertussis Autotransporter Vag8 Binds Human C1 Esterase Inhibitor and Confers Serum Resistance” (PLoS ONE, 2011)
Results are given in words; binding and its absence hold for the method and conditions named. For some assays here: A result given as binding can be weak or reduced; the word gives no strength.

The chains behind the UniProt entries cited, without tags or fusion partners. Where a name states a change or a piece, a line headed by the entry shows the natural chain unless it says otherwise.
UniProt Q79GN7: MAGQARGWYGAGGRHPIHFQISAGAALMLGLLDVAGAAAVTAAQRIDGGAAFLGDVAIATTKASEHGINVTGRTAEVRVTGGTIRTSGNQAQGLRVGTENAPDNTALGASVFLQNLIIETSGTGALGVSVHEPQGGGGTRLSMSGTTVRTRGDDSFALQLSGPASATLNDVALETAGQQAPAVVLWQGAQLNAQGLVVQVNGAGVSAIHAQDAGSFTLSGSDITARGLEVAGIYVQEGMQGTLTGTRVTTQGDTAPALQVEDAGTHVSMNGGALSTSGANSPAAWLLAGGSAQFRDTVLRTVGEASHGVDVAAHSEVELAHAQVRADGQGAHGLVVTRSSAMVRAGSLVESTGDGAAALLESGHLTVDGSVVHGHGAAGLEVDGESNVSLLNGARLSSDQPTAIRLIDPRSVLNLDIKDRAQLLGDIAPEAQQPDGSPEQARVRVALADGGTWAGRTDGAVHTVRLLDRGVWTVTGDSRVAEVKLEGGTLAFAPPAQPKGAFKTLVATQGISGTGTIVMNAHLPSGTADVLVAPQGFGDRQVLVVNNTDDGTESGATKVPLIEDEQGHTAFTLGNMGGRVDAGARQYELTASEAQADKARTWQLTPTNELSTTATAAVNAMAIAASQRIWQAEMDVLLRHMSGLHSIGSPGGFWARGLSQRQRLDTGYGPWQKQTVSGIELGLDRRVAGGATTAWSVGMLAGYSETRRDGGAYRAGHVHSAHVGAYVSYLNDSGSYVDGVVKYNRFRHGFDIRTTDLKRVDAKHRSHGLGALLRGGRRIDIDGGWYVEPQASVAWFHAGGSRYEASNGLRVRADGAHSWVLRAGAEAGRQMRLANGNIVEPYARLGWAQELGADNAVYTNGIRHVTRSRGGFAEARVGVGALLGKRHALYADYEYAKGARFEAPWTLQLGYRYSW

What was measured:
[1] = biological target: Vag8 expressed from plasmid pVag8 in BP338Vag8^- (Bordetella pertussis) (UniProt Q79GN7); test: surface-binding assay (bacteria in serum, immunoblot of cell-associated C1inh); viable bacteria exposed to normal human serum 15 min at 37°C, on ice 5 min, washed 3 times, pelleted; cell-associated C1inh detected by immunoblot; vag8 knock-out strains as controls
[2] = biological target: autotransporter Vag8 of B. pertussis 18-323Sm^r (endogenous) (Bordetella pertussis (endogenous in 18-323Sm^r)); test: as above
[3] = biological target: autotransporter Vag8 of B. pertussis BP338 (endogenous) (Bordetella pertussis (endogenous in BP338)) (UniProt Q79GN7); test: as above
[4] = biological target: autotransporter Vag8 of B. pertussis BP338 (endogenous) (Bordetella pertussis (endogenous in BP338)) (UniProt Q79GN7); test: far-Western, overlay or dot blot; whole-cell lysates of B. pertussis on 11% SDS-PAGE, blotted on PVDF, renatured (6 M guanidine-HCl, then long wash), overlaid with 1% normal human serum in Veronal buffer, 1 h room temperature; detected with anti-C1inh
[5] = biological target: histidine-tagged BrkA passenger domain (Bordetella pertussis); test: condition: 10 µg/ml purified C1inh; coat up to 5 µg/ml; ELISA; MaxiSorp plates coated with two-fold dilutions of purified passenger domain (top 5 µg/ml, PBS pH 7.4, overnight 4°C); probed 1 h at room temperature with 10 µg/ml purified human C1inh; detected with goat anti-C1inh; both purified

Row | Binder | binding [1] | binding [2] | binding [3] | binding [4] | binding [5]
1 | C1 esterase inhibitor in normal human serum (protein, UniProt P05155 23-500) NPNATSSSSQDPESLQDRGEGKVATTVISKMLFVEPILEVSSLPTTNSTTNSATKITANTTDEPTTQPTTEPTTQPTIQPTQPTTQLPTDSPTQPTTGSFCPGPVTLCSDLESHSTEAVLGDALVDFSLKLYHAFSAMKKVETNMAFSPFSIASLLTQVLLGAGENTKTNLESILSYPKDFTCVHQALKGFTTKGVTSVSQIFHSPDLAIRDTFVNASRTLYSSSPRVLSNNSDANLELINTWVAKNTNNKISRLLDSLPSDTRLVLLNAIYLSAKWKTTFDPKKTRMEPFHFKNSVIKVPMMNSKKYPVAHFIDQTLKAKVGQLQLSHNLSLVILVPQNLKHRLEDMEQALSPSVFKAIMEKLEMSKFQPTLLTLPRIKVTTSQDMLSIMEKLEFFDFSYDLNLCGLTEDPDLQVSAMQHQTVLELTETGVEAAAASAISVARTLLVFEVQQPFLFVLWDQQHKFPVFMGRVYDPRA | binds | binds | binds | binds | –
2 | purified human C1 esterase inhibitor (natural protein, also called C1inh; purified C1inh; source: bought: Advanced Research Technologies (purified human C1inh)) NPNATSSSSQDPESLQDRGEGKVATTVISKMLFVEPILEVSSLPTTNSTTNSATKITANTTDEPTTQPTTEPTTQPTIQPTQPTTQLPTDSPTQPTTGSFCPGPVTLCSDLESHSTEAVLGDALVDFSLKLYHAFSAMKKVETNMAFSPFSIASLLTQVLLGAGENTKTNLESILSYPKDFTCVHQALKGFTTKGVTSVSQIFHSPDLAIRDTFVNASRTLYSSSPRVLSNNSDANLELINTWVAKNTNNKISRLLDSLPSDTRLVLLNAIYLSAKWKTTFDPKKTRMEPFHFKNSVIKVPMMNSKKYPVAHFIDQTLKAKVGQLQLSHNLSLVILVPQNLKHRLEDMEQALSPSVFKAIMEKLEMSKFQPTLLTLPRIKVTTSQDMLSIMEKLEFFDFSYDLNLCGLTEDPDLQVSAMQHQTVLELTETGVEAAAASAISVARTLLVFEVQQPFLFVLWDQQHKFPVFMGRVYDPRA | – | – | – | – | no binding
